Results are given in words; binding and its absence hold for the method and conditions named. Some entries that bind do so weakly or less than the wild type.

Chains of the proteins cited; added tags and fusions are not shown. Lines headed by an entry give the natural chain unless they say otherwise; changes in a name come on top.
UniProt Q9NRE1: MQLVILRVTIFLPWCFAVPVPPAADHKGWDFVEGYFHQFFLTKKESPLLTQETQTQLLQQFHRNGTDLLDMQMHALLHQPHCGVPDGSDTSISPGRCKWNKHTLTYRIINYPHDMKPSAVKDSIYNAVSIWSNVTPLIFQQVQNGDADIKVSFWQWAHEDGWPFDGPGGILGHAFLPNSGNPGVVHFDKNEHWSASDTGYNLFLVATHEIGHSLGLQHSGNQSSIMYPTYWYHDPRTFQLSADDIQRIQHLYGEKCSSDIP

This test concerns the target MMP-26 catalytic domain, tagged with hexa-histidine (human) (UniProt Q9NRE1). As to the kind of experiment: MMP cross reactivity ELISA, IgG4 at 2 µg/ml. A general note: In an ELISA, binding on a coated surface is turned into a signal by an enzyme label.

B1: C01 (antibody, human IgG4, V domains shown)
VH: EVQLLESGGGLVQPGGSLRLSCAASGFTFSNYGMSWVRQAPGKGLEWVSVIGPSGGITMYADSVKGRFTISRDNSKNTLYLQMNSLRAEDTAVYYCATGSSSGWYPNFDYWGQGTLVTVSS
VL: DIQMTQSPSTLSASVGDRVTITCRASQSIGNWLAWYQQKPGEAPHLLIYQASSLEGGVPSRFSGSGSGTKFTLNISSLQPDDFATYYCQQYNSYSYTFGQGTKLDIKR
Regarding B1, the binding entry is “binds”.

B2: C08 (antibody, human IgG4, V domains shown)
VH: EVQLLESGGGLVQPGGSLRLSCAASGFTFSYYEMMWVRQAPGKGLEWVSSISPSGGPTMYADSVKGRFTISRDNSKNTLYLQMNSLRAEDTGVYYCARKMGRVGYCSSTSCYRDDYYGMDVWGQGTTVTVSS
VL: DIQMTQSPPSLSALVGDRVTITCRASQSISRYVNWYQQKPGKAPKVLIYAASIVENGVPSRFSGSGSGTDFSLTISSLQPEDFATYYCQQTYSTPLTFGGGTKLAIKR
Turning to B2, the binding entry is on record as “binds”.

B3: D03 (antibody, human IgG4, V domains shown)
VH: EVQLLESGGGLVQPGGSLRLSCAASGFTFSWYRMDWVRQAPGKGLEWVSVIGSSGGMTYYADSVKGRFTISRDNSKNTLYLQMNSLRAEDTAVYYCARRVVGGAGMDVWGQGTTVTVSS
VL: DIQMTQSPSAMSASVGDRVTITCRASQVMINYIAWFRQKPGKVPERLIYAASTLQNGVPSRFSGSGSGTDFTLTISRLEPEDFAVYYCQHRITWPPALTFGGGTTVEIKR
Consider B3, for which the binding entry is given as “binds”.

B4: A10 (antibody, human IgG4, V domains shown)
VH: EVQLLESGGGLVQPGGSLRLSCAASGFTFSAYRMFWVRQAPGKGLEWVSSIWPSGGTTSYADSVKGRFTISRDNSKNTLYLQMNSLRAEDTAVYYCARDRGYDSSGYFDYWGQGTLVTVSS
VL: QSELTQPPSASGTPGQRVTISCSGGSSNIGSNYVSWYQQLPGTAPKLLIYNNNQRPSGVPDRFSGSKSGTSASLAISGLRSEDEADYYCAAWDDSLSSAVFGGGTQLTVLG
B4: the binding entry was “binds”.

B5: C03 (antibody, human IgG4, V domains shown)
VH: EVQLLESGGGLVQPGGSLRLSCAASGFTFSLYMMKWVRQAPGKGLEWVSVISSSGGYTQYADSVKGRFTISRDNSKNTLYLQMNNLRAEDTAVYYCARGWDVWGKGTTVTVSS
VL: QSALTQPPSASGTPGQRVTISCSGSNSNIGGNIVIWLQQLPGTAPKLMIYDVSDRPSGVPDRFSGSKSGTSASLAISGLQSEDEADYYCAAWDDSLNGWVFGGGTKLTVLS
Take B5: the binding entry was “binds”.

B6: D01 (antibody, V domains shown)
VH: EVQLLESGGGLVQPGGSLRLSCAASGFTFSMYLMFWVRQAPGKGLEWVSVISSSGGETSYADSVKGRFTISRDNSKNTLYLQMNSLRAEDTAVYYCARQVSDWTRLYSFDYWGQGTLVTVSS
VL: QSELTQPPSASGTPGQRITISCSGSSSNIGSNYVYWYQQFPETAPKLLISRNDQRPSGVPDRFSGSKSGTSASLAISGLRSEDEADYYCASWDDSLSGVVFGGGTKLTVLG
As for B6, the binding result was “binds”.

B7: C10 (antibody, human IgG4, V domains shown)
VH: EVQLLESGGGLVQPGGSLRLSCAASGFTFSVYVMMWVRQAPGKGLEWVSGIVPSGGKTHYADSVKGRFTISRDNSKNTLYLQMNSLRAEDTAVYYCARPDYGGNSRPLEYWGQGTLVTVSS
VL: QSELTQPASVSGSPGQSITISCTGTSSDVGSYNLVSWYQQHPGKAPKLMIYEGSKRPSGVSNRFSGSKSGNTASLTISGLQAEDEADYYCCSYAGSSTYVFGTGTKVTVLG
For the molecule B7, the binding result is recorded as “binds”.

B8: C07 (antibody, human IgG4, V domains shown)
VH: EVQLLESGGGLVQPGGSLRLSCAASGFTFSYYVMMWVRQAPGKGLEWVSVIRPSGGITTYADSVKGRFTISRDNSKNTLYLQTNSLRAEDTAVYYCAKIDYGGNSFYFDYWGQGTLVTVSS
VL: DIQMTQSPSSLSASVGDRVTITCRASQSISNYLNWYQQRPGKAPKLLIYAASSLERGVPSRFSGSGSGTDFTLTISSLQSEDFATYYCQQSYSPPPLTFGGGTKLEIKR
Turning to B8, the binding entry is “binds”.

B9: D06 (antibody, human IgG4, V domains shown)
VH: EVQLLESGGGLVQPGGSLRLSCAASGFTFSGYIMEWVRQAPGKGLEWVSVIVSSGGFTMYADSVKGRFTISRDNSKNTLYLQMNSLRAEDTAVYYCARVGDSKGGYYLDYWGQGTLVTVSS
VL: DIQMTQSPSSLSASVGDRVTITCRTSQIINTYLNWYQQKPGKAPKLLIYAASTLQGGVPSRFSGSGSGTDFTLTIKSLQPDDFATYYCQQSYTSPRTFGQGTKVEIKR
With B9, the binding entry is “binds”.

B10: D02 (antibody, human IgG4, V domains shown)
VH: EVQLLESGGGLVQPGGSLRLSCAASGFTFSWYDMAWVRQAPGKGLEWVSRIVPSGGHTSYADSVKGRFTISRDNFKNTLYLQMNSLRAEDTAVYYCARRASRPEFFDYWGQGALVTVSS
VL: DIQMTQSPSFLSASVGDRVTITCRASQGISTYLAWYQQKPGKAPKVLIYTASTLQSGVPSRFSGSGSGTEFTLTISSLQPEDFATYYCQQSYITPPEVTFGPGTKVDIKR
For the molecule B10, the binding entry is “binds”.

B11: B08 (antibody, human IgG4, V domains shown)
VH: EVQLLESGGGLVQPGGSLRLSCAASGFTFSRYMMNWVRQAPGKGLEWVSVIWSSGGKTLYADSVKGRFTISRDNSKNTLYLQMKSLRAEDTAVYYCARGGYNNYYYSMDVWGQGTTVTVSS
VL: QSELTQPHSVSGSPGKTVTISCTRSSGSIAGNYVQWYQQRPGSSPTTVIYEDNKRPSGVPDRFSGSIDSSSNSASLIISGLKTEDEADYYCHSYDTSNQVFGGGTKLTVLG
For B11, the binding entry is listed as “binds”.

B12: B06 (antibody, human IgG4, V domains shown)
VH: EVQLLESGGGLVQPGGSLRLSCAASGFTFSQYFMKWVRQAPGKGLEWVSSISPSGGLTQYADSVKGRFTISRDNSKNTLYLQMNSLRAEDTAVYYCARGGIEAPGSPSDYWGQGTLVTVSS
VL: DIQMTQSPSFLSASVGDRVTITCRASQGISSYLAWYQQKPGKAPKLLIYAASTLQSGVPSRFSGSGSGTDFTLTISSLEPEDFATYYCQESYSTPFFTFGPGTKVDIRR
In the case of B12, the binding result is reported as “binds”.

B13: B01 (antibody, human IgG4, V domains shown)
VH: EVQLLESGGGLVQPGGSLRLSCAASGFTFSTYDMLWVRQAPGKGLEWVSSISPSGGSTSYADSVKGRFTISRDNSKNTLYLQLNSLRAEDTAVYYCAREKASDLSGTYSEALDHWGQGTLVTVSS
VL: DIQMTQSPGTLSLSPGERATLSCRASQSVSSSYFAWYQQKPGQAPRLLIYDASSRATGIPDRFSGSGSGTDFTLTISRLEPEDFAVYYCQQYGSSPPMYTFGQGTKLEIKR
Take B13: the binding result is on record as “binds”.

B14: A11 (antibody, human IgG4, V domains shown)
VH: EVQLLESGGGLVQPGGSLRLSCAASGFTFSWYTMMWVRQAPGKGLEWVSRISPSGGHTLYADSVKGRFTISRDNSZNTLYLQMNSLRAEDTAVYYCARDTWDDYYDSSGYYNDFDYWGQGTLVTVSS
VL: QSALTQPPSVSLAPGQTARITCGGNNIGTKSVHWYQQKPGQAPVLVVYDDSDRPSGIPERFSGSNSGNTATLTISRVEAGDEADYYCQVWDSGSDHQVFGGGTKLTVLG
As for B14, the binding result is “binds”.

B15: B11 (antibody, human IgG4, V domains shown)
VH: EVQLLESGGGLVQPGGSLRLSCAASGFTFSPYFMFWVRQAPGKGLEWVSSIGSSGGDTSYADSVKGRFTISRDNSZNTLYLQMNSLRAEDTAVYYCARGLYRWGQGTLVTVSS
VL: QSELTQPPSVSLAPGQTARITCGGNNIGTKSVHWYQQKPGQAPVLVVYDDSDRPSGIPERFSGSNSGNTATLTISRVEAGDEADYYCQVWDSGSDHQVFGGGTKLTVLG
Turning to B15, the binding entry is reported as “binds”.

B16: C05 (antibody, human IgG4, V domains shown)
VH: EVQLLESGGGLVQPGGSLRLSCAASGFTFSSYQMDWVRQAPGKGLEWVSRIVPSGGDTTYADSVKGRFTISRDNSKNTLYLQMNSLRAEDTAVYYCARHVYYDSSDYFPNPFDYWGQGTLVTVSS
VL: QSELTQPPSVSGTPGQRVTISCSGSSSNIGSEYVYWFQQLPGTAPRLLIYRNDQRPSGVPDRFSGSKSGTSASLAISGLRSEDETDYYCTTWDDSLSGPVFGGGTKLTVLG
Take B16: the binding result is given as “binds”.

B17: C06 (antibody, human IgG4, V domains shown)
VH: EVQLLESGGGLVQPGGSLRLSCAASGFTFSFYFMFWVRQAPGKGLEWVSYIGPSGGPTNYADSVKGRFTISRDNSKNTLYLQMNSLRAEDTAVYYCARHYPREYQLPGSFDPWGQGTLVTVSS
VL: DIQMTQSPSSLSASVGDRVTITCRASQGISNYLAWYQQKPGKVPKLLIYPASTLQSGVPSRFSGSGSGTDFTLTISSLQPEDFATYYCQQADSFPPTFGGGTTVEIRR
As to B17, the binding result is “binds”.

B18: A12 (antibody, human IgG4, V domains shown)
VH: EVQLLESGGGLVQPGGSLRLSCAASGFTFSAYWMDWVRQAPGKGLEWVSVIYPSGGSTNYADSVKGRFTISRDNSKNTLYLQMNSLRAEDTAVYYCAREGIAAAAPMDVWGKGTTVTVSS
VL: DIQMTQSPGTLSLSPGERATLSCRASQSVSRSYLGWYQQKPGQAPRLLIYGASNRATGIPDRFSGSGSGTDFTLTISRLEPEDFAVYYCQQYGISPLTFGPGTKVDIKR
Turning to B18, the binding result is recorded as “binds”.

B19: C09 (antibody, human IgG4, V domains shown)
VH: EVQLLESGGGLVQPGGSLRLSCAASGFTFSQYFMNWVRQAPGKGLEWVSYISGGRTPYADSVKGRFTISRDNSKNTLYLQMNSLRAEDTAVYYCAILLGPSSSNHPFLGPWGQGTLVTVSS
VL: DIQMTQSPGTLSLSPGERATLSCRASQSVSSTYLAWYQQKPGQAPRLLISGASSRATGIPDRFSGSGSGTDFTLTISRLEPEDFAVYYCQQYGSSPYTFGQGTKLEIKR
As to B19, the binding result was “binds”.

B20: C11 (antibody, human IgG4, V domains shown)
VH: EVQLLESGGGLVQPGGSLRLSCAASGFTFSEYPMWWVRQAPGKGLEWVSWIYPSGGNTDYADSVKGRFTISRDNSKNTLYLQMNSLRAEDTAVYYCAIPYCSSSSCPLHWGQGTLVTVSS
VL: QSELTQPPSASGSPGQSVTISCTGTSSDVGGYNYVSWYQQHPDKAPKLLIYEVTQRPSGVPDRFSGSRSGNTASLTVSGLQAEDEADYYCSSYAGRNNLYVFGPGTKVTVLG
B20: the binding result was “binds”.

B21: D04 (antibody, human IgG4, V domains shown)
VH: EVQLLESGGGLVQPGGSLRLSCAASGFTFSDYQMMWVRQAPGKGLEWVSRISPSGGMTRYADSVKGRFTISRDNSKNTLYLPMNSLRAEDTAVYYCARSGPYYFDYWGQGTLVTVSS
VL: DIQMTQSPSSLSASVGDRVAITCRASQSIDTYLNWYQQKPGKAPKLLIYAASKLEDGVPSRFSGSGTGTDFTLTIRSLQPEDFASYFCQQSYSSPGITFGPGTKVEIKR
Turning to B21, the binding entry was “binds”.
